Laboratory results: patent US9888688B2, “Tetrazolinone compounds and applications thereof” (Sumitomo Chemical Company, Limited, priority 2013, dated 2018)
Some of these results come from one statement about several compounds together. For some of these results: At least one compound was matched to its structure with a doubt left.

Tests used:
Assay type in all cases: in vivo
[1] = test system: barley net blotch fungus (Pyrenophora teres); test: Barley net blotch control test, foliar spray on barley (Test Examples 4, 16, 17, 18); conditions: barley NISHINOHOSHI, inoculated after 2 days
[2] = test system: wheat leaf blotch fungus (Septoria tritici); test: Wheat leaf blotch control test, spray before inoculation (Test Examples 6, 9, 10, Comparative Test Example); conditions: wheat APOGEE, inoculated after 4 days
[3] = test system: barley scald fungus (Rhynchosporium secalis); test: Barley scald control test, foliar spray on barley (Test Examples 20, 21); conditions: 200 ppm foliar spray, barley NISHINOHOSHI, inoculated after 2 days
[4] = test system: kidney bean stem rot fungus (Sclerotinia sclerotiorum); test: Kidney bean stem rot control test, foliar spray on kidney bean (Test Examples 5, 22, 23); conditions: kidney bean NAGAUZURA NATANE, four days after inoculation
[5] = test system: cucumber anthracnose fungus (Colletotrichum lagenarium); test: Cucumber anthracnose control test (Test Examples 28, 29); conditions: cucumber SAGAMI HANJIRO, inoculated after one day

Measured: area of lesion spots relative to that on an untreated plant

Cc1cc(OCc2c(C)cccc2-n2nnn(C)c2=O)c(Cl)cc1-c1ccc(C#N)nc1 [Present Compound 198]
≤ 30%: [1]; 200 ppm foliar spray | [1]; 500 ppm foliar spray | [2]; 200 ppm foliar spray | [2]; 500 ppm foliar spray | [3] | [4]; 500 ppm foliar spray

CCc1cccc(-c2ccc(OCc3c(Cl)cccc3-n3nnn(C)c3=O)c(C)c2)n1 [Present Compound 46]
≤ 30%: [1]; 200 ppm foliar spray | [1]; 500 ppm foliar spray | [2]; 200 ppm foliar spray | [2]; 500 ppm foliar spray | [3] | [4]; 200 ppm foliar spray | [4]; 500 ppm foliar spray

Cc1ccnc(-c2ccc(OCc3c(Cl)cccc3-n3nnn(C)c3=O)c(C(F)(F)F)c2)n1 [Present Compound 134]
≤ 30%: [1]; 200 ppm foliar spray | [1]; 500 ppm foliar spray | [2]; 200 ppm foliar spray | [2]; 500 ppm foliar spray | [3] | [4]; 200 ppm foliar spray | [4]; 500 ppm foliar spray

COc1cccc(-n2nnn(C)c2=O)c1COc1ccc(-c2cc(C)ccn2)cc1C [Present Compound 25]
≤ 30%: [1]; 200 ppm foliar spray | [1]; 500 ppm foliar spray | [2]; 200 ppm foliar spray | [2]; 500 ppm foliar spray | [3] | [4]; 200 ppm foliar spray | [4]; 500 ppm foliar spray

Cc1cc(-c2cccc(C#N)n2)ccc1OCc1ccccc1-n1nnn(C)c1=O [Present Compound 117]
≤ 30%: [1]; 500 ppm foliar spray

Cc1cc(-c2cncnc2)ccc1OCc1c(C)cccc1-n1nnn(C)c1=O [Present Compound 89]
≤ 30%: [1]; 200 ppm foliar spray | [2]; 50 ppm foliar spray | [3]

COc1cccc(-n2nnn(C)c2=O)c1COc1ccc(-c2cnccc2Cl)cc1C [Present Compound 70]
≤ 30%: [1]; 200 ppm foliar spray | [2]; 200 ppm foliar spray | [3] | [4]; 200 ppm foliar spray

Cc1cc(-c2cccc(Cl)n2)ccc1OCc1ccccc1-n1nnn(C)c1=O [Present Compound 39]
≤ 30%: [1]; 200 ppm foliar spray | [1]; 500 ppm foliar spray | [2]; 200 ppm foliar spray | [2]; 500 ppm foliar spray | [3] | [4]; 200 ppm foliar spray | [4]; 500 ppm foliar spray

Cc1cc(-c2ccncn2)c(C)cc1OCc1c(C)cccc1-n1nnn(C)c1=O [Present Compound 202]
≤ 30%: [1]; 500 ppm foliar spray | [3] | [4]; 500 ppm foliar spray

Cc1cc(-c2ncc(Br)cn2)ccc1OCc1c(C)cccc1-n1nnn(C)c1=O [Present Compound 199]
≤ 30%: [1]; 200 ppm foliar spray | [1]; 500 ppm foliar spray | [2]; 200 ppm foliar spray | [2]; 500 ppm foliar spray | [3] | [4]; 200 ppm foliar spray | [4]; 500 ppm foliar spray

COc1ccnc(-c2cc(C)c(OCc3c(C)cccc3-n3nnn(C)c3=O)cc2C)c1 [Present Compound 188]
≤ 30%: [1]; 200 ppm foliar spray | [1]; 500 ppm foliar spray | [2]; 500 ppm foliar spray | [3] | [4]; 500 ppm foliar spray

Cc1cc(C#N)nc(-c2ccc(OCc3c(C)cccc3-n3nnn(C)c3=O)c(C)c2)c1 [Present Compound 144]
≤ 30%: [1]; 500 ppm foliar spray | [2]; 500 ppm foliar spray

Cc1ccnc(-c2ccc(OCc3c(-n4nnn(C)c4=O)cccc3S(C)(=O)=O)c(C)c2)n1 [Present Compound 124, 1-{2-[2-methyl-4-(6-methylpyrimidin-2-yl)-phenoxymethyl]-3-methylsulfonylphenyl}-4-methyl-1,4-dihydrotetrazol-5-one]
≤ 30%: [5]; 50 ppm foliar spray

Cn1nnn(-c2ccccc2COc2cc(F)c(-c3ccccn3)cc2F)c1=O [Present Compound 207]
≤ 30%: [5]; 200 ppm foliar spray | [1]; 200 ppm foliar spray | [1]; 500 ppm foliar spray | [2]; 500 ppm foliar spray | [4]; 500 ppm foliar spray

Cc1cccc(-c2ccc(OCc3c(C)cccc3-n3nnn(C)c3=O)c(C)c2)n1 [Present Compound 55]
≤ 30%: [4]; 50 ppm foliar spray

Cc1cc(-c2cccc(C(F)(F)F)n2)ccc1OCc1c(C)cccc1-n1nnn(C)c1=O [Present Compound 35]
≤ 30%: [1]; 200 ppm foliar spray | [1]; 500 ppm foliar spray | [2]; 200 ppm foliar spray | [2]; 500 ppm foliar spray | [3] | [4]; 200 ppm foliar spray | [4]; 500 ppm foliar spray

Cc1cc(-c2cccnc2Cl)ccc1OCc1c(C)cccc1-n1nnn(C)c1=O [Present Compound 108]
≤ 30%: [2]; 200 ppm foliar spray | [4]; 500 ppm foliar spray

Cc1cccc(-c2ccc(OCc3c(C)cccc3-n3nnn(C)c3=O)c(C#N)c2)n1 [Present Compound 156]
≤ 30%: [1]; 200 ppm foliar spray | [1]; 500 ppm foliar spray | [3]

CCc1cccc(-n2nnn(C)c2=O)c1COc1ccc(-c2cnccc2Cl)cc1C [Present Compound 68]
≤ 30%: [1]; 200 ppm foliar spray | [1]; 500 ppm foliar spray | [2]; 200 ppm foliar spray | [2]; 500 ppm foliar spray | [3] | [4]; 200 ppm foliar spray | [4]; 500 ppm foliar spray

COc1cc(-c2cccc(C)n2)ccc1OCc1c(C)cccc1-n1nnn(C)c1=O [Present Compound 155]
≤ 30%: [1]; 200 ppm foliar spray | [1]; 500 ppm foliar spray | [2]; 200 ppm foliar spray | [2]; 500 ppm foliar spray | [3] | [4]; 200 ppm foliar spray | [4]; 500 ppm foliar spray

Cn1nnn(-c2ccccc2COc2ccc(-c3ccccn3)cc2)c1=O [Present Compound 223]
≤ 30%: [1]; 500 ppm foliar spray | [2]; 500 ppm foliar spray | [4]; 200 ppm foliar spray | [4]; 500 ppm foliar spray

Cc1cccc(-n2nnn(C)c2=O)c1COc1cc(F)c(-c2cccc(Cl)n2)cc1F [Present Compound 209]
≤ 30%: [1]; 200 ppm foliar spray | [1]; 500 ppm foliar spray | [2]; 200 ppm foliar spray | [2]; 500 ppm foliar spray | [4]; 500 ppm foliar spray

Cc1cc(-c2ncc(C3CC3)cn2)ccc1OCc1c(C)cccc1-n1nnn(C)c1=O [Present Compound 247]
≤ 30%: [1]; 200 ppm foliar spray | [1]; 500 ppm foliar spray | [2]; 200 ppm foliar spray | [2]; 500 ppm foliar spray | [3] | [4]; 200 ppm foliar spray | [4]; 500 ppm foliar spray

Cc1nccc(-c2ccc(OCc3ccccc3-n3nnn(C)c3=O)c(C)c2)n1 [Present Compound 81]
≤ 30%: [1]; 200 ppm foliar spray | [1]; 500 ppm foliar spray | [3] | [4]; 200 ppm foliar spray | [4]; 500 ppm foliar spray

Cc1cc(-c2cccc(C#N)n2)ccc1OCc1c(Cl)cccc1-n1nnn(C)c1=O [Present Compound 118]
≤ 30%: [1]; 200 ppm foliar spray | [1]; 500 ppm foliar spray | [2]; 200 ppm foliar spray | [2]; 500 ppm foliar spray | [3] | [4]; 500 ppm foliar spray

Cc1cc(-c2cncc(Br)c2)c(C)cc1OCc1c(C)cccc1-n1nnn(C)c1=O [Present Compound 200]
≤ 30%: [1]; 200 ppm foliar spray | [1]; 500 ppm foliar spray | [3] | [4]; 200 ppm foliar spray | [4]; 500 ppm foliar spray
